PMC5964349, “A Single-Domain Response Regulator Functions as an Integrating Hub To Coordinate General Stress Response and Development in Alphaproteobacteria” (mBio, 2018)
No constants are given. Whether binding was seen depends on the method and setting. Binding seen in cells or lysates may run through a third protein. A yes stands for co-enrichment or nearness to the bait. Other partners may have been found.

Protein sequences, listed by entry. Tags and fused reporters are not part of them. Lines headed by an entry give the natural chain unless they say otherwise; changes in a name come on top.
UniProt Q9A428: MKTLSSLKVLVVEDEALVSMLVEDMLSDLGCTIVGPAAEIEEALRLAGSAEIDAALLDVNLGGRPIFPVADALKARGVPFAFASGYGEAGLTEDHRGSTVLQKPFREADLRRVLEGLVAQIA
UniProt A0A0H3CAN8: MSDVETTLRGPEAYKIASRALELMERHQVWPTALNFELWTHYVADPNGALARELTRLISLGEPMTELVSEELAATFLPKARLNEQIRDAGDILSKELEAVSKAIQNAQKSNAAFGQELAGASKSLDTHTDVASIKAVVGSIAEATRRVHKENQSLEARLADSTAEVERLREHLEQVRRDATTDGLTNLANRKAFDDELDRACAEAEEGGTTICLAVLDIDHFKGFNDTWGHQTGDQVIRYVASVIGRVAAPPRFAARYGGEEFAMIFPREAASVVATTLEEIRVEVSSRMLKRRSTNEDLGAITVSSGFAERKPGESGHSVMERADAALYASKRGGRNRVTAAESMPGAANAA

Molecular target: MrrA-3×FLAG (multifunctional response regulator A, CC3015) (C. crescentus) (UniProt Q9A428)
Test: affinity purification with mass spectrometry; lysate (Bug Buster) of C. crescentus expressing mrrA-3×FLAG; anti-FLAG antibodies by the legend of Table S1 (the methods name Ni-NTA agarose); control strain with untagged MrrA; eluate digested and analysed by LC-MS/MS

With “diguanylate cyclase DgcB (from UniProt A0A0H3CAN8) (enzyme)” the binding was “binds”.
